Assay results reported in US20230272371A1, “METHOD FOR SCREENING FOR POLYPEPTIDE THAT ACTS ON TARGET PROTEIN” (NATIONAL INSTITUTE OF ADVANCED INDUSTRIAL SCIENCE AND …, priority 2020, published 2023).
These are yes or no findings as the source states them, for the method shown. Some entries that bind do so weakly or less than the wild type.

Target: T1, human Kv2.1 (human) (UniProt Q14721)
T1 sequence (looked up): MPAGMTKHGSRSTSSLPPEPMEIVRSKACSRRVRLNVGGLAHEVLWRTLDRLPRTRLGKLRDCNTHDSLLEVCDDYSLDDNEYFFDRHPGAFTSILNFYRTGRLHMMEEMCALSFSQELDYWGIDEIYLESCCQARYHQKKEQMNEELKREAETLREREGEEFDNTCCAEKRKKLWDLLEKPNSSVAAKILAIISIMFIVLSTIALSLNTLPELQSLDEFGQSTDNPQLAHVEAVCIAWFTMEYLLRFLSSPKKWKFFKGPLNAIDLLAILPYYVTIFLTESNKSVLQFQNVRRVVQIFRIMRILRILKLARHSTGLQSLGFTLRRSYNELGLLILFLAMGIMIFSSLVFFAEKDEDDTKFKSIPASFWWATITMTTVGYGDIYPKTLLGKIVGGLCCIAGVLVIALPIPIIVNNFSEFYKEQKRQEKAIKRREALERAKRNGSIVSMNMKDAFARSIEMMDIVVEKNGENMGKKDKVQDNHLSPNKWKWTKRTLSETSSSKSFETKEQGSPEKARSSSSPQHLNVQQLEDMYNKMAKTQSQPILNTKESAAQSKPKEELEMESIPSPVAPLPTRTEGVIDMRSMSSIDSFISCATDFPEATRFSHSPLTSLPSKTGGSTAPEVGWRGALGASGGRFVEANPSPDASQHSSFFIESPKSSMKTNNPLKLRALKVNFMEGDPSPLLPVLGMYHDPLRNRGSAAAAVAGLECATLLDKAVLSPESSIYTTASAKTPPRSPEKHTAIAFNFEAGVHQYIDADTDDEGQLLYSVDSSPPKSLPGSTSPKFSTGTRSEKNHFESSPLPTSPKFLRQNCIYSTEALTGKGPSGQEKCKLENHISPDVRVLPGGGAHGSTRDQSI
Assay: clone from the library concentrated 5 times by the PERISS method (Strept-tag capture of peptide / Kv2.1 / spheroplast complexes on streptavidin magnetic beads); no effect on the current in patch clamp

With “Clone 32 peptide (SEQ ID NO: 8), from the GTx1-15-based ODA library (from UniProt P0AEG6 21-236)” the binding was “binds”.
